Results on 15 molecules are retold here after the supplement of paper PMC10689618.

The list shows a part of the results. Single values are uncertain, as repeats are few or missing.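 Labelled rat cortical synaptosomes were engulfed by primary human fetal astrocytes. Engulfment equaled a red/green ratio, corrected for calcein live-cell signal and normalized to the plate median. Compounds were toxic when calcein dropped over 30%, and reduced phagocytosis when below 70% of the median above 5 µM.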

For the experiment, the system named is Human fetal astrocytes. Nature of the experiment: loss of total cells relative to no-compound high-control median (toxicity); higher = more toxic (fewer cells). To be noted: 1.39 µM; 24 h.
Consider `NC(=O)c1cccnc1`, for which the “loss of total cells” value worked out at 5%.

As to `C[C@H]1O[C@H](O[C@H]2[C@H](O)[C@@H](O)[C@@H](O[C@@H]([C@H](O)[C@@H](O)C=O)[C@H](O)CO)O[C@@H]2CO)[C@H](O)[C@@H](O)[C@@H]1N[C@H]1C=C(CO)[C@@H](O)[C@H](O)[C@H]1O`, the “loss of total cells” value was -50%.

Take `CCN(CC)CCOC(=O)C(c1ccccc1)c1ccccc1`: the “loss of total cells” value was -46%.

As to `N[C@@H](CSCSC[C@H](N)C(=O)O)C(=O)O`, the “loss of total cells” value was -13.1%.

On to `C=CC1=C(C)/C(=C/c2[nH]c(Cc3[nH]c(/C=C4\NC(=O)C(C)=C4C=C)c(C)c3CCC(=O)O)c(CCC(=O)O)c2C)NC1=O`, for which the “loss of total cells” value is -22.1%.

On to `C[C@]12CC[C@@H]3c4ccc(O)cc4CC[C@H]3[C@@H]1CC[C@@H]2OC(=O)CCC1CCCC1`, for which the “loss of total cells” value was -12.8%.

With `C[C@@H]1C(=O)O[C@H]2C[C@@]34[C@H]5C[C@@H](C(C)(C)C)[C@]36[C@@H](OC(=O)[C@@H]6O)O[C@@]4(C(=O)O5)[C@]21O`, the “loss of total cells” value was 16.2%.

As for `CN(C)CCOC(c1ccc(Cl)cc1)c1ccccn1` (stereo not given), the “loss of total cells” value is -21.6%.

In the case of `COc1ccc(/C=C/C(=O)O)cc1OC`, the “loss of total cells” value is -9.8%.

As for `COc1ccc2c(c1)O[C@H]1c3ccc(OC)cc3OC[C@@H]21`, the “loss of total cells” value came to 15.6%.

On to `CCCCC(CC)CN=C(N)N=C(N)NCCCCCCNC(N)=NC(N)=NCC(CC)CCCC` (stereo not given), for which the “loss of total cells” value was -10.7%.

For `Cc1ncc(C[n+]2csc(CCO)c2C)c(N)n1`, the “loss of total cells” value was -26.6%.

On to `O=C(/C=C/c1ccccc1)c1ccc(O[C@@H]2O[C@H](CO)[C@@H](O)[C@H](O)[C@H]2O)cc1O`, for which the “loss of total cells” value was -14.1%.

On to `COc1ccc(C(C)=O)c(O)c1`, for which the “loss of total cells” value was -22.1%.

With `COc1c2ccoc2cc2oc(C)cc(=O)c12`, the “loss of total cells” value turned out to be 15.6%.
